Reference: paper PMC12040169 (PLOS Biology, 2025)
The other results are listed elsewhere or left out.

tested on: T1, CTL2-GFP (C. trachomatis L2/434/Bu, GFP-expressing); parameters: species or system HeLa; Intracellular C. trachomatis growth in HeLa cells, bulk GFP fluorescence relative to DMSO; settings: bulk GFP, single well; 28.5 h, 10 µM; inhibitor
T1 construct: L2/434/Bu, GFP-expressing

Point of comparison: OCCNc1nccnc1-c1ccc2c(c1)OCO2 [CBK088984], “% of control remaining” value 187.132%. Against it:
- COC(=O)c1c(NC(=O)CC2Nc3cccc4cccc(c34)NC2=O)sc(C)c1C (centres unmarked) [CBK267562] — lower, 158.997%
- CCn1nccc1C(=O)N1CCC(c2cc3c(C)cccc3cn2)CC1 [CBK282234] — lower, 118.727%
- Cc1ccc(S(=O)(=O)N(CC(=O)Nc2cccnc2)c2cc(C)ccc2C)cc1 [CBK264115] — lower, 123.7%
- CN(Cc1cnn(C)c1)C(=O)c1cc(O)nc2ccccc12 [CBK251706] — lower, 114.603%
- CN(C)S(=O)(=O)c1ccc(C(=O)Nc2cccc(N3Cc4ccccc4C3)c2)cc1 [CBK266025] — lower, 143.104%
- COC(=O)[C@H]1CN(C(=O)c2ccncc2)C[C@@H]1c1ccc(F)cc1 [CBK283509] — lower, 105.502%
- O=[N+]([O-])c1ccc(-c2nc(-c3ccccc3)c(-c3ccc4oc5ccc(-c6[nH]c(-c7ccc([N+](=O)[O-])cc7)nc6-c6ccccc6)cc5c4c3)[nH]2)cc1 [CBK261434] — lower, 99.5823%
- Cc1cc(C)c(NC(=O)C2CCCN2CCCN(C)C)c(C)c1 (centres unmarked) [CBK278172F] — lower, 100%
- Nc1ncnc2c1ccn2[C@H]1C[C@@H](O)[C@@H](CO)O1 [CBK201258] — lower, 145.402%
- O=C(c1ccc(F)cc1)C1CCN(CCC(c2ccccc2)c2ccccc2)CC1 [CBK149138] — lower, 127.281%
- CS(=O)(=O)Nc1nccnc1N1CCN(Cc2ccccc2)CC1 [CBK084268] — lower, 101.91%
- Cc1ccc2c(c1)c(NC(=O)OC(C)C)nn2Cc1cc2c(cc1Cl)OCO2 [CBK048652] — lower, 140.353%
- Cc1ccc(C(=O)Nc2ccccc2C(=O)NC(C)C(=O)O)cc1 (centres unmarked) [CBK263540] — lower, 100%
- Cc1ccc2[nH]c(C3CCCCN3C(=O)c3ccncc3)nc2c1 (centres unmarked) [CBK284000] — lower, 102.31%
- COc1ncc(-c2cncc(NCCO)n2)c(OC)n1 [CBK037939] — lower, 181.517%
- O=C(NCCCn1ccnc1)N1CCN(Cc2ccc(Cl)cc2)CC1 [CBK305894] — lower, 37.7574%
- CCn1cc(C2CN(S(=O)(=O)c3cc(C)c(OC)c(C)c3)CCO2)cn1 (centres unmarked) [CBK304224] — lower, 66.4104%
- O=C(C1CC1)N1CCC(n2nc(-c3cccs3)ccc2=O)CC1 [CBK284213] — lower, 114.687%
- CN(C)CCN(Cc1ccncc1)Cc1cc(F)ccc1F [CBK283095] — lower, 121.142%
- c1ccc2c(c1)OCC(COc1nccc(N3CCCN(Cc4ccc5c(c4)OCO5)CC3)n1)O2 (centres unmarked) [CBK083235T] — lower, 115.259%
- O=C(Nc1ccc(F)cc1)c1ccc(=O)n(CC(=O)N2CCC3(CCCCC3)C2)c1 [CBK286006] — lower, 139.006%
- O=C(Cn1cnc2ccccc2c1=O)Oc1cccc(NC2=NS(=O)(=O)c3ccccc32)c1 [CBK264975] — lower, 126.252%
- Cc1cc2nccc(C3CCCN(C(=O)c4ccccc4F)C3)n2n1 (centres unmarked) [CBK284184] — lower, 85.7695%
- Cc1cc2c(cc1S(=O)(=O)NCc1ccccc1)NC(=O)CO2 [CBK270159] — lower, 132.102%
- Cn1c(C(=O)NCCc2ccc(S(=O)(=O)NC(=O)NC3CCCCC3)cc2)cc2ccccc21 [CBK011876] — lower, 71.8637%
- COc1ncc(-c2ccc(NCC(C)C)nc2)c(OC)n1 [CBK036934] — lower, 135.052%
- COc1ccc2[nH]c(/C(C#N)=C\c3ccc(-c4cc(C(=O)O)ccc4Cl)o3)nc2c1 [CBK268370] — lower, 176.066%
- c1ccc(Cn2cc(-c3nccnc3OCc3ccccn3)cn2)cc1 [CBK107088] — lower, 94.8233%
- O=C(Nc1ccccc1C(=O)O)c1cccc(NC(=O)c2ccco2)c1 [CBK299774] — lower, 165.32%
- O=S(=O)(NCc1ccccn1)c1ccc(Cl)c(Cl)c1Cl [CBK263978] — lower, 95.8963%
- C=CCOc1ccc(C(=O)C2=C(O)C(=O)N(Cc3cccnc3)C2c2cccnc2)cc1 (centres unmarked) [CBK265167] — lower, 114.573%
- Cc1ccc(-c2ccc(/C=N\NC(=O)C3C(=O)NCC3c3ccccc3)o2)cc1Cl (centres unmarked) [CBK262808] — lower, 76.7778%
- Cc1[nH]c2ccccc2c1C(=O)CSc1nnc(N)s1 [CBK266328] — lower, 154.997%
- Cn1cc(NC(=O)CCn2c(C(F)(F)F)cc3cccnc32)cn1 [CBK284866] — lower, 118.343%
- CC(C)Cn1cnc(S(=O)(=O)N2CCC(Cc3ccccc3)CC2)c1 [CBK306273] — lower, 164.092%
- CC1CCc2c(sc(Nc3nc4c(F)cccc4s3)c2C(N)=O)C1 (centres unmarked) [CBK287477] — lower, 162.584%
- COc1ccc(C(C)C)cc1-c1cncc(NCC(C)(C)CO)n1 [CBK065206] — lower, 141.821%
- Cc1cccc(Cl)c1S(=O)(=O)c1ccc2ccnc(N3CCNCC3)c2c1 [CBK036394C] — lower, 101.562%
- CS(=O)(=O)c1ccc(CN2CC[C@H](c3nc4ncccc4[nH]3)C2)cc1 [CBK289385] — lower, 149.39%
- NC(=O)c1ccc(-c2ccc(/C=C3/C(=O)NN(c4ccc(F)cc4)C3=O)o2)cc1 [CBK098345] — lower, 116.273%
- COC(=O)[C@H]1CN(C(=O)c2cscn2)C[C@@H]1c1ccc(F)cc1 [CBK283785] — lower, 133.704%
- CC(C)(C)OC(=O)N1CCN(Cc2ccn(Cc3ccc(S(C)(=O)=O)cc3)c2)CC1 [CBK144936] — lower, 123.043%
- Cc1noc(C)c1CN1CCC(Oc2ccccc2)CC1 [CBK305811] — lower, 128.287%
- CC1CCN(C(=O)COC(=O)c2cnc(-c3ccncc3)s2)CC1 [CBK306255] — lower, 146.97%
- CCN(Cc1ccncc1)S(=O)(=O)c1ccc(Cl)c(Cl)c1 [CBK043818] — lower, 105.451%
- O=C(COc1cccnc1)N1CCc2ccccc21 [CBK200268] — lower, 96.8639%
- CS(=O)(=O)c1ccc(C(=O)Nc2nc(-c3ccccc3)cs2)cc1 [CBK287716] — lower, 87.502%
- CCOc1ccccc1N1CCN(C(=O)c2cc(-c3ccccc3C)nc3ccccc23)CC1 [CBK091950] — lower, 119.587%
- Cc1ccsc1CN1CCOCC1 [CBK026429] — lower, 126.015%
- CCN(Cc1cnn(C)c1)[C@H]1CCO[C@@H](c2ccccc2-c2ccc(OC)cc2)C1 [CBK285854] — lower, 125.35%
- CCOc1cccc(-c2ccc(Nc3ccc(Oc4ccccc4)cc3)nc2)c1 [CBK037679] — lower, 87.1781%
- CC1CC(C)CN(CCCNC(=O)c2cc(C(C)C)nn2C)C1 (centres unmarked) [CBK282665] — lower, 102.012%
- CSc1nnnn1-c1cccc(NC(=O)N2CCCN(C)CC2)c1 [CBK304180] — lower, 167.48%
- CC1(C)CCCN1C1=NC(=O)C(c2ccccc2)O1 (centres unmarked) [CBK023070] — lower, 86.2955%
- O=C(NCCc1c[nH]c2ccc(Cl)cc12)c1c(F)ccc(Cl)c1F [CBK159756] — lower, 12.4242%
- COc1ccc(NC(=S)NCCN2CCC(C)CC2)cc1Cl [CBK267268] — lower, 98.5694%
- CCOc1cc(S(=O)(=O)NCc2ccccn2)ccc1Cl [CBK266817] — lower, 106.995%
- COc1cc(CNc2ccc(N3CCOCC3)c(Cl)c2)ccc1OCc1ccccc1F [CBK074392] — lower, 85.162%
- Sc1nnc(C2CCCC2)n1CC1CCCO1 (centres unmarked) [CBK288413] — lower, 118.092%
- O=C(CCc1ccc(Cl)cc1)NCCn1cncn1 [CBK283184] — lower, 93.4259%
- Cc1nc2c(c(=O)[nH]1)CCN(C(=O)c1oc3ccccc3c1C)C2 [CBK283752] — lower, 85.385%
- O=c1cc2oc3cc(O)c(O)cc3c(-c3ccc(OCc4cccc([N+](=O)[O-])c4)cc3)c-2cc1O [CBK265408] — lower, 131.649%
- COCCn1c(SC(C)C(=O)N2CCOCC2)nc2cc(Cl)ccc21 (centres unmarked) [CBK305580] — lower, 175.619%
- CN(C)c1cccc2c(S(=O)(=O)n3c(=O)n(Cc4ccc(S(C)(=O)=O)cc4)c4ccccc43)cccc12 [CBK106535] — lower, 109.795%
- CC1(C)CC(=O)C(C(=S)Nc2ccccc2)=C(NCc2ccccc2)C1 [CBK264498] — lower, 100%
- COc1ccccc1N1CCN(CC(CC(=O)Nc2ccccc2)C(=O)O)CC1 (centres unmarked) [CBK286766] — lower, 149.291%
- CCN1CCC(CNS(=O)(=O)c2ccc(N3CCCC3=O)cc2)CC1 [CBK305663] — lower, 90.92%
- O=C(CN1CCCC1)Nc1sc2c(c1C(=O)Nc1ccccc1)CCCC2 [CBK268800] — lower, 92.8186%
- COc1ccc(CC(=O)NCC(c2cccs2)N2CCOCC2)cc1F (centres unmarked) [CBK305618] — lower, 152.17%
- CCOC(=O)CN(Cc1ccccc1)S(=O)(=O)c1ccc(C(C)C)cc1 [CBK043404] — lower, 118.222%
- CN(C)c1ccc(/C=C(\C#N)c2nn(-c3ccccc3)c(N)c2C#N)cc1[N+](=O)[O-] [CBK262532] — lower, 100%
- O=C1NC(=O)C2(CCN(C(=O)c3csc4c3CCCC4)CC2)N1 [CBK305601] — lower, 116.89%
- Cc1cccc(C)c1NC(=O)C(C)Sc1nc2ccccc2c(=O)n1CC1CCCO1 (centres unmarked) [CBK068151] — lower, 117.28%
- O=C(NC(c1ccc(Cl)cc1)c1ccsc1)C1CCN(CCOc2ccccc2)CC1 (centres unmarked) [CBK147951] — lower, 110.005%
- CS(=O)(=O)Nc1ccc(-c2ccc3c(c2)CCO3)c2ccccc12 [CBK083753] — lower, 83.6025%
- Cn1nc2n(c1=O)CC(C(=O)NCCN1CCCc3ccccc31)CC2 (centres unmarked) [CBK307206] — lower, 138%
